The values below come from PMC6965176, “Targeting Forward and Reverse EphB4/EFNB2 Signaling by a Peptide with Dual Functions” (Scientific Reports, 2020).

By UniProt entry, the sequences of proteins in these tests, tags left out. Residues count along the entry.
UniProt P52799, residues 28-229: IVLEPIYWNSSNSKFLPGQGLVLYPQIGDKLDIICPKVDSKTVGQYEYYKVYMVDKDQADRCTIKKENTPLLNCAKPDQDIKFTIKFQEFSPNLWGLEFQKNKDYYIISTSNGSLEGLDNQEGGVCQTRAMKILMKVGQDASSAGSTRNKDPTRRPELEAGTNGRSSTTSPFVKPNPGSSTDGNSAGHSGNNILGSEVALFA

Sequences and labels used below:
B1: EphB1 ectodomain fused with Fc (Fc fusion, UniProt Q8CBF3 18-540)
chain: MEETLMDTRTATAELGWTANPASGWEEVSGYDENLNTIRTYQVCNVFEPNQNNWLLTTFINRRGAHRIYTEMRFTVRDCSSLPNVPGSCKETFNLYYYETDSVIATKKSAFWSEAPYLKVDTIAADESFSQVDFGGRLMKVNTEVRSFGPLTRNGFYLAFQDYGACMSLLSVRVFFKKCPSIVQNFAVFPETMTGAESTSLVIARGTCIPNAEEVDVPIKLYCNGDGEWMVPIGRCTCKPGYEPENSVACKACPAGTFKASQEAEGCSHCPSNSRSPSEASPICTCRTGYYRADFDPPEVACTSVPSGPRNVISIVNETSIILEWHPPRETGGRDDVTYNIICKKCRADRRSCSRCDDNVEFVPRQLGLTECRVSISSLWAHTPYTFDIQAINGVSSKSPFPPQHVSVNITTNQAAPSTVPIMHQVSATMRSITLSWPQPEQPNGIILDYEIRYYEKEHNEFNSSMARSQTNTARIDGLRPGMVYVVQVRARTVAGYGKFSGKMCFQTLTDDDYKSELREQLP
B2: EphB6 ectodomain fused with Fc (Fc fusion, UniProt O08644 33-591)
chain: LEEVLLDTTGETSEIGWLTYPPGGWDEVSVLDDQRRLTRTFEACHVAGLPPGSGQDNWLQTHFVERRGAQRAHIRLHFSVRACSSLGVSGGTCRETFTLYYRQADEPDGPDSIAAWHLKRWTKVDTIAADESFPASSSSSSWAVGPHRTGQRVGLQLNVKERSFGPLTQRGFYVAFQDTGACLALVAVKLFSYTCPSVLRAFASFPETQASGAGGASLVAAVGTCVAHAEPEEDGVGGQAGGSPPRLHCNGEGRWMVAVGGCRCQPGHQPARGDKLCQACPEGSYKALAGNVPCSPCPARSHSPDPAAPVCPCLQGFYRASSDPPEAPCTGPPSAPRELWFEVQGSALMLHWRLPQELGGRGDLLFNVVCKECGGHGEPSSGGMCRRCRDEVHFDPRQRGLTESRVLVGGLRAHVPYILEVQAVNGVSELSPDPPQAAAINVSTSHEVPSAVPVMHQVSRAANSITVSWPQPEQTNGNILDYQLRYYDQAEDESHSFTMTSETNTATVTRLSPGHIYGFQVRARTAAGHGPYGGKVYFQTLPQGELSSQLPEKLSLVIG
B3: EphB3 ectodomain fused with Fc (Fc fusion, UniProt P54754 30-554)
chain: LEETLMDTKWVTSELAWTSHPESGWEEVSGYDEAMNPIRTYQVCNVRESSQNNWLRTGFIWRREVQRVYVELKFTVRDCNSIPNIPGSCKETFNLFYYEADSDVASASSPFWMENPYVKVDTIAPDESFSRLDAGRVNTKVRSFGPLSKAGFYLAFQDQGACMSLISVRAFYKKCASTTAGFALFPETLTGAEPTSLVIAPGTCIANAVEVSVPLKLYCNGDGEWMVPVGACTCATGHEPAAKESQCRACPPGSYKAKQGEGPCLPCPPNSRTTSPAASICTCHNNFYRADSDSADSACTTVPSPPRGVISNVNETSLILEWSEPRDLGGRDDLLYNVICKKCRGSSGAGGPATCSRCDDNVEFVPRQLGLTERRVHISHLLAHTRYTFEVQAVNGVSGKSPLPPRYAAVNITTNQAAPSEVPTLHLHSSSGSSLTLSWAPPERPNGVILDYEMKYFEKSKGIASTVTSQKNSVQLDGLQPDARYVVQVRARTVAGYGQYSHPAEFETTSERGSGAQQLQEQLPL
B4: EphB2 ectodomain fused with Fc (Fc fusion, UniProt P54763 19-543)
chain: VEETLMDSTTATAELGWMVHPPSGWEEVSGYDENMNTIRTYQVCNVFESSQNNWLRTKFIRRRGAHRIHVEMKFSVRDCSSIPSVPGSCKETFNLYYYEADFDLATKTFPNWMENPWVKVDTIAADESFSQVDLGGRVMKINTEVRSFGPVSRNGFYLAFQDYGGCMSLIAVRVFYRKCPRIIQNGAIFQETLSGAESTSLVAARGSCIANAEEVDVPIKLYCNGDGEWLVPIGRCMCKAGFEAVENGTVCRGCPSGTFKANQGDEACTHCPINSRTTSEGATNCVCRNGYYRADLDPLDMPCTTIPSAPQAVISSVNETSLMLEWTPPRDSGGREDLVYNIICKSCGSGRGACTRCGDNVQYAPRQLGLTEPRIYISDLLAHTQYTFEIQAVNGVTDQSPFSPQFASVNITTNQAAPSAVSIMHQVSRTVDSITLSWSQPDQPNGVILDYELQYYEKELSEYNATAIKSPTNTVTVQGLKAGAIYVFQVRARTVAGYGRYSGKMYFQTMTEAEYQTSIKEKLPL
B5: EphB3 ectodomain fused with Fc (Fc fusion, UniProt P54753 34-559)
chain: GCRALEETLMDTKWVTSELAWTSHPESGWEEVSGYDEAMNPIRTYQVCNVRESSQNNWLRTGFIWRRDVQRVYVELKFTVRDCNSIPNIPGSCKETFNLFYYEADSDVASASSPFWMENPYVKVDTIAPDESFSRLDAGRVNTKVRSFGPLSKAGFYLAFQDQGACMSLISVRAFYKKCASTTAGFALFPETLTGAEPTSLVIAPGTCIPNAVEVSVPLKLYCNGDGEWMVPVGACTCATGHEPAAKESQCRPCPPGSYKAKQGEGPCLPCPPNSRTTSPAASICTCHNNFYRADSDSADSACTTVPSPPRGVISNVNETSLILEWSEPRDLGGRDDLLYNVICKKCHGAGGASACSRCDDNVEFVPRQLGLTERRVHISHLLAHTRYTFEVQAVNGVSGKSPLPPRYAAVNITTNQAAPSEVPTLRLHSSSGSSLTLSWAPPERPNGVILDYEMKYFEKSEGIASTVTSQMNSVQLDGLRPDARYVVQVRARTVAGYGQYSRPAEFETTSERGSGAQQLQEQLPL
B6: EphB6 ectodomain fused with Fc (Fc fusion, UniProt O15197 32-594)
chain: LEEVLLDTTGETSEIGWLTYPPGGWDEVSVLDDQRRLTRTFEACHVAGAPPGTGQDNWLQTHFVERRGAQRAHIRLHFSVRACSSLGVSGGTCRETFTLYYRQAEEPDSPDSVSSWHLKRWTKVDTIAADESFPSSSSSSSSSSSAAWAVGPHGAGQRAGLQLNVKERSFGPLTQRGFYVAFQDTGACLALVAVRLFSYTCPAVLRSFASFPETQASGAGGASLVAAVGTCVAHAEPEEDGVGGQAGGSPPRLHCNGEGKWMVAVGGCRCQPGYQPARGDKACQACPRGLYKSSAGNAPCSPCPARSHAPNPAAPVCPCLEGFYRASSDPPEAPCTGPPSAPQELWFEVQGSALMLHWRLPRELGGRGDLLFNVVCKECEGRQEPASGGGGTCHRCRDEVHFDPRQRGLTESRVLVGGLRAHVPYILEVQAVNGVSELSPDPPQAAAINVSTSHEVPSAVPVVHQVSRASNSITVSWPQPDQTNGNILDYQLRYYDQAEDESHSFTLTSETNTATVTQLSPGHIYGFQVRARTAAGHGPYGGKVYFQTLPQGELSSQLPERLS
B7: EphB1 ectodomain fused with Fc (Fc fusion, UniProt P54762 18-540)
chain: MEETLMDTRTATAELGWTANPASGWEEVSGYDENLNTIRTYQVCNVFEPNQNNWLLTTFINRRGAHRIYTEMRFTVRDCSSLPNVPGSCKETFNLYYYETDSVIATKKSAFWSEAPYLKVDTIAADESFSQVDFGGRLMKVNTEVRSFGPLTRNGFYLAFQDYGACMSLLSVRVFFKKCPSIVQNFAVFPETMTGAESTSLVIARGTCIPNAEEVDVPIKLYCNGDGEWMVPIGRCTCKPGYEPENSVACKACPAGTFKASQEAEGCSHCPSNSRSPAEASPICTCRTGYYRADFDPPEVACTSVPSGPRNVISIVNETSIILEWHPPRETGGRDDVTYNIICKKCRADRRSCSRCDDNVEFVPRQLGLTECRVSISSLWAHTPYTFDIQAINGVSSKSPFPPQHVSVNITTNQAAPSTVPIMHQVSATMRSITLSWPQPEQPNGIILDYEIRYYEKEHNEFNSSMARSQTNTARIDGLRPGMVYVVQVRARTVAGYGKFSGKMCFQTLTDDDYKSELREQLP
B8: EphB4 ectodomain fused with Fc (Fc fusion, UniProt P54760 16-539)
chain: LEETLLNTKLETADLKWVTFPQVDGQWEELSGLDEEQHSVRTYEVCDVQRAPGQAHWLRTGWVPRRGAVHVYATLRFTMLECLSLPRAGRSCKETFTVFYYESDADTATALTPAWMENPYIKVDTVAAEHLTRKRPGAEATGKVNVKTLRLGPLSKAGFYLAFQDQGACMALLSLHLFYKKCAQLTVNLTRFPETVPRELVVPVAGSCVVDAVPAPGPSPSLYCREDGQWAEQPVTGCSCAPGFEAAEGNTKCRACAQGTFKPLSGEGSCQPCPANSHSNTIGSAVCQCRVGYFRARTDPRGAPCTTPPSAPRSVVSRLNGSSLHLEWSAPLESGGREDLTYALRCRECRPGGSCAPCGGDLTFDPGPRDLVEPWVVVRGLRPDFTYTFEVTALNGVSSLATGPVPFEPVNVTTDREVPPAVSDIRVTRSSPSSLSLAWAVPRAPSGAVLDYEVKYHEKGAEGPSSVRFLKTSENRAELRGLKRGASYLVQVRARSEAGYGPFGQEHHSQTQLDESEGWREQLA
B9: EphB2 ectodomain fused with Fc (Fc fusion, UniProt P29323 19-543)
chain: VEETLMDSTTATAELGWMVHPPSGWEEVSGYDENMNTIRTYQVCNVFESSQNNWLRTKFIRRRGAHRIHVEMKFSVRDCSSIPSVPGSCKETFNLYYYEADFDSATKTFPNWMENPWVKVDTIAADESFSQVDLGGRVMKINTEVRSFGPVSRSGFYLAFQDYGGCMSLIAVRVFYRKCPRIIQNGAIFQETLSGAESTSLVAARGSCIANAEEVDVPIKLYCNGDGEWLVPIGRCMCKAGFEAVENGTVCRGCPSGTFKANQGDEACTHCPINSRTTSEGATNCVCRNGYYRADLDPLDMPCTTIPSAPQAVISSVNETSLMLEWTPPRDSGGREDLVYNIICKSCGSGRGACTRCGDNVQYAPRQLGLTEPRIYISDLLAHTQYTFEIQAVNGVTDQSPFSPQFASVNITTNQAAPSAVSIMHQVSRTVDSITLSWSQPDQPNGVILDYELQYYEKELSEYNATAIKSPTNTVTVQGLKAGAIYVFQVRARTVAGYGRYSGKMYFQTMTEAEYQTSIQEKLPL

No constants are given. Whether binding was seen depends on the method and setting. Some entries that bind do so weakly or less than the wild type. For some of these results: Tags and fused reporters may be left off the sequences shown.

In the first assay the target is T1, biotinylated BIDEN-AP.
T1 sequence (peptide, D-Tyr at P3; biotin (position not stated)): TNYLFSPNGPIARAW
As to the kind of experiment: ELISA; biotinylated BIDEN-AP (10 uM) on streptavidin-coated plates; Eph ectodomain-Fc proteins at 2.5 ug/mL in 0.5% BSA in PBS, room temperature, 1 h; detected with anti-Fc antibody coupled to alkaline phosphatase; normalised to EphB4-Fc; both purified.
With B1, the binding result is reported as “no binding (tested: 2.5 ug/mL)”.

For B2, the binding entry is reported as “no binding (tested: 2.5 ug/mL)”.

With B3, the binding result is “no binding (tested: 2.5 ug/mL)”.

On to B4, for which the binding entry was “no binding (tested: 2.5 ug/mL)”.

In the next assay the target is EphB4 on the surface of A2780cp20 ovarian cancer cells (human (endogenous in A2780cp20)) (UniProt P54760). Briefly: flow cytometry on cells; competition: A2780cp20 cells (1x10^6 cells/mL) co-incubated with EFNB2-Fc (20 nM) and BIDEN-AP (0 to 100 µM) at 25 °C for 1 h; bound EFNB2-Fc probed with phycoerythrin-labeled anti-Fc antibody; only the binder purified.
As to “EFNB2-Fc (ephrin B2 fused with Fc) (from UniProt P52799 28-229) (Fc fusion)”, the binding result is recorded as “binds”.

Another assay has as its target T1, biotinylated BIDEN-AP. Briefly: ELISA; biotinylated BIDEN-AP (10 µM) immobilised on streptavidin-coated 96-well plates; Eph ectodomain-Fc proteins (2.5 µg/mL) in 0.5% BSA in PBS, room temperature, 1 h; anti-Fc antibody coupled to alkaline phosphatase; signals normalized to EphB4-Fc; both purified. Background: In an ELISA, binding on a coated surface is turned into a signal by an enzyme label.
Regarding B5, the binding entry was “no binding (tested: 2.5 µg/mL)”.

As for B6, the binding result is given as “no binding (tested: 2.5 µg/mL)”.

For the molecule B7, the binding entry is recorded as “no binding (tested: 2.5 µg/mL)”.

As for B8, the binding entry is reported as “binds”.

For B9, the binding entry is “no binding (tested: 2.5 µg/mL)”.
